# Results taken from the supplement of paper PMC8728848.
# The list shows a part of the results.
# B1: AT1G77380(17) (Arabidopsis thaliana), Q39134 (protein)
# chain: MVQNHQTVLAVDMPQTGGSKYLDDDGKNKRTGSVWTASAHIITAVIGSGVLSLAWATAQLGWLAGPVVMLLFSAVTYFTSSLLAACYRSGDPISGKRNYTYMDAVRSNLGGVKVTLCGIVQYLNIFGVAIGYTIASAISMMAIKRSNCFHKSGGKDPCHMNSNPYMIAFGLVQILFSQIPDFDQLWWLSILAAVMSFTYSSAGLALGIAQVVVNGKVKGSLTGISIGAVTETQKIWRTFQALGDIAFAYSYSIILIEIQDTVKSPPSEEKTMKKATLVSVSVTTMFYMLCGCMGYAAFGDLSPGNLLTGFGFYNPYWLLDIANAAIVIHLIGAYQVYCQPLFAFIEKQASIQFPDSEFIAKDIKIPIPGFKPLRLNVFRLIWRTVFVIITTVISMLLPFFNDVVGLLGALGFWPLTVYFPVEMYIAQKKIPRWSTRWVCLQVFSLGCLVVSIAAAAGSIAGVLLDLKSYKPFRSEY
# Key:
# Experiment in all cases: glycan array binding signal (z-score within array); higher = stronger binding
# Conditions in all cases: glycan notation: IUPAC condensed, linker removed
# GalNAc3S(b1-4)GlcNAc3S = biological target: GalNAc3S(b1-4)GlcNAc3S
# How it was run: (§1)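 The binding signal is a Z-score computed within each array. Data were drawn from 3228 arrays in the Consortium for Functional Glycomics database, restricted to those with a known protein sequence. Scores were averaged over arrays of the same protein sequence at different concentrations or buffers, and over linkers, and negative values can be taken as non-binding.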
# [1] = biological target: GalNAc3S(b1-4)[Fuc(a1-3)]GlcNAc
# How it was run: as §1
# GalNAc4S6S(b1-4)GlcNAc = biological target: GalNAc4S6S(b1-4)GlcNAc
# How it was run: as §1
# GalNAc6S(b1-4)GlcNAc = biological target: GalNAc6S(b1-4)GlcNAc
# How it was run: as §1
# Glc(a1-4)Glc = biological target: Glc(a1-4)Glc
# How it was run: as §1
# [2] = biological target: Glc(a1-4)Glc(a1-4)Glc(a1-4)Glc
# How it was run: as §1
# Glc(a1-6)Glc(a1-6)Glc = biological target: Glc(a1-6)Glc(a1-6)Glc
# How it was run: as §1
# [3] = biological target: Glc(a1-6)Glc(a1-6)Glc(a1-6)Glc
# How it was run: as §1
# Glc(b1-4)Glc = biological target: Glc(b1-4)Glc
# How it was run: as §1
# Glc(b1-6)Glc = biological target: Glc(b1-6)Glc
# How it was run: as §1
# GlcA(b1-3)Gal = biological target: GlcA(b1-3)Gal
# How it was run: as §1
# GlcA(b1-3)GlcNAc = biological target: GlcA(b1-3)GlcNAc
# How it was run: as §1
# GlcA(b1-6)Gal = biological target: GlcA(b1-6)Gal
# How it was run: as §1
# [4] = biological target: GlcA3S(b1-3)Gal(b1-4)GlcNAc(b1-2)Man
# How it was run: as §1
# [5] = biological target: GlcA3S(b1-3)Gal(b1-4)GlcNAc(b1-3)Gal(b1-4)Glc
# How it was run: as §1
# [6] = biological target: GlcNAc(a1-3)Gal(b1-4)GlcNAc
# How it was run: as §1
# [7] = biological target: GlcNAc(a1-4)Gal(b1-3)GlcNAc
# How it was run: as §1
# [8] = biological target: GlcNAc(a1-4)Gal(b1-4)GalNAc
# How it was run: as §1
# [9] = biological target: GlcNAc(a1-4)Gal(b1-4)GlcNAc
# How it was run: as §1
# [10] = biological target: GlcNAc(a1-4)Gal(b1-4)GlcNAc(b1-3)Gal(b1-4)Glc
# How it was run: as §1
# [11] = biological target: GlcNAc(a1-4)Gal(b1-4)GlcNAc(b1-3)Gal(b1-4)GlcNAc
# How it was run: as §1
# [12] = biological target: GlcNAc(a1-4)Gal(b1-4)GlcNAc(b1-3)Gal(b1-4)GlcNAc(b1-3)Gal(b1-4)GlcNAc
# How it was run: as §1
# [13] = biological target: GlcNAc(a1-4)Gal(b1-4)GlcNAc(b1-3)Gal(b1-4)[Fuc(a1-3)]GlcNAc(b1-3)Gal(b1-4)[Fuc(a1-3)]GlcNAc
# How it was run: as §1
# [14] = biological target: GlcNAc(a1-6)Gal(b1-4)GlcNAc
# How it was run: as §1
# [15] = biological target: GlcNAc(b1-2)Gal(b1-3)GalNAc
# How it was run: as §1
# [16] = biological target: GlcNAc(b1-2)Man(a1-3)[GlcNAc(b1-2)Man(a1-6)]Man(b1-4)GlcNAc(b1-4)GlcNAc
# How it was run: as §1
# [17] = biological target: GlcNAc(b1-2)Man(a1-3)[GlcNAc(b1-2)Man(a1-6)]Man(b1-4)GlcNAc(b1-4)[Fuc(a1-6)]GlcNAc
# How it was run: as §1
# [18] = biological target: GlcNAc(b1-2)Man(a1-3)[GlcNAc(b1-4)][GlcNAc(b1-2)Man(a1-6)]Man(b1-4)GlcNAc(b1-4)GlcNAc
# How it was run: as §1
# [19] = biological target: GlcNAc(b1-2)Man(a1-3)[GlcNAc(b1-4)][GlcNAc(b1-2)Man(a1-6)]Man(b1-4)GlcNAc(b1-4)[Fuc(a1-6)]GlcNAc
# How it was run: as §1
# [20] = biological target: GlcNAc(b1-2)[GlcNAc(b1-4)]Man(a1-3)[GlcNAc(b1-2)Man(a1-6)]Man(b1-4)GlcNAc(b1-4)GlcNAc
# How it was run: as §1
# [21] = biological target: GlcNAc(b1-2)[GlcNAc(b1-4)]Man(a1-3)[GlcNAc(b1-4)][GlcNAc(b1-2)Man(a1-6)]Man(b1-4)GlcNAc(b1-4)GlcNAc
# How it was run: as §1
# [22] = biological target: GlcNAc(b1-2)[GlcNAc(b1-4)]Man(a1-3)[GlcNAc(b1-4)][GlcNAc(b1-2)[GlcNAc(b1-6)]Man(a1-6)]Man(b1-4)GlcNAc(b1-4)GlcNAc
# How it was run: as §1
# [23] = biological target: GlcNAc(b1-2)[GlcNAc(b1-4)]Man(a1-3)[GlcNAc(b1-4)][GlcNAc(b1-2)[GlcNAc(b1-6)]Man(a1-6)]Man(b1-4)GlcNAc(b1-4)[Fuc(a1-6)]GlcNAc
# How it was run: as §1
# [24] = biological target: GlcNAc(b1-2)[GlcNAc(b1-6)]Man(a1-6)[GlcNAc(b1-2)Man(a1-3)]Man(b1-4)GlcNAc(b1-4)GlcNAc
# How it was run: as §1
# [25] = biological target: GlcNAc(b1-2)[GlcNAc(b1-6)]Man(a1-6)[GlcNAc(b1-2)Man(a1-3)]Man(b1-4)GlcNAc(b1-4)[Fuc(a1-6)]GlcNAc
# How it was run: as §1
# [26] = biological target: GlcNAc(b1-2)[GlcNAc(b1-6)]Man(a1-6)[GlcNAc(b1-4)][GlcNAc(b1-2)Man(a1-3)]Man(b1-4)GlcNAc(b1-4)GlcNAc
# How it was run: as §1
# GlcNAc(b1-3)Fuc = biological target: GlcNAc(b1-3)Fuc
# How it was run: as §1
# GlcNAc(b1-3)Gal = biological target: GlcNAc(b1-3)Gal
# How it was run: as §1
binder,measurement,setting,value
B1,glycan array binding signal (z-score),GalNAc3S(b1-4)GlcNAc3S,-0.031
same,glycan array binding signal (z-score),[1],-0.741
same,glycan array binding signal (z-score),GalNAc4S6S(b1-4)GlcNAc,-0.249
same,glycan array binding signal (z-score),GalNAc6S(b1-4)GlcNAc,-0.268
same,glycan array binding signal (z-score),Glc(a1-4)Glc,-0.508
same,glycan array binding signal (z-score),[2],-0.725
same,glycan array binding signal (z-score),Glc(a1-6)Glc(a1-6)Glc,-0.169
same,glycan array binding signal (z-score),[3],-0.562
same,glycan array binding signal (z-score),Glc(b1-4)Glc,0.66
same,glycan array binding signal (z-score),Glc(b1-6)Glc,0.801
same,glycan array binding signal (z-score),GlcA(b1-3)Gal,0.506
same,glycan array binding signal (z-score),GlcA(b1-3)GlcNAc,0.33
same,glycan array binding signal (z-score),GlcA(b1-6)Gal,0.052
same,glycan array binding signal (z-score),[4],-0.131
same,glycan array binding signal (z-score),[5],-0.507
same,glycan array binding signal (z-score),[6],-0.156
same,glycan array binding signal (z-score),[7],-0.389
same,glycan array binding signal (z-score),[8],-0.048
same,glycan array binding signal (z-score),[9],-0.15
same,glycan array binding signal (z-score),[10],-0.016
same,glycan array binding signal (z-score),[11],0.257
same,glycan array binding signal (z-score),[12],-0.203
same,glycan array binding signal (z-score),[13],1.48
same,glycan array binding signal (z-score),[14],-0.127
same,glycan array binding signal (z-score),[15],0.018
same,glycan array binding signal (z-score),[16],-0.226
same,glycan array binding signal (z-score),[17],0.386
same,glycan array binding signal (z-score),[18],-0.289
same,glycan array binding signal (z-score),[19],1.83
same,glycan array binding signal (z-score),[20],1.22
same,glycan array binding signal (z-score),[21],-0.82
same,glycan array binding signal (z-score),[22],-0.887
same,glycan array binding signal (z-score),[23],-0.642
same,glycan array binding signal (z-score),[24],-0.487
same,glycan array binding signal (z-score),[25],1.04
same,glycan array binding signal (z-score),[26],-0.522
same,glycan array binding signal (z-score),GlcNAc(b1-3)Fuc,-0.685
same,glycan array binding signal (z-score),GlcNAc(b1-3)Gal,-0.826

# 2 entries from above, reformatted.
binder	measurement	setting	value
B1	glycan array binding signal (z-score)	GalNAc3S(b1-4)GlcNAc3S	-0.031
same	glycan array binding signal (z-score)	[1]	-0.741
